Results on 17 compounds are retold here after PubChem BioAssay AID248 (DTP/NCI, 2004).

In this test the test system is L1210 leukemia ip in BDF1 mice, survival T/C. As to the kind of experiment: NCI In Vivo Anticancer Drug Screen. Data for tumor model L1210 Leukemia (intraperitoneal) in B6D2F1 (BDF1) mice. Particulars: T/C endpoint: mean survival time, higher T/C = longer survival.
Where [1] appears, read: dose: 400.0 mg/kg/injection, schedule: Q01DX001 (ip), vehicle: saline.
The mark [2] stands for this setting: dose: 300.0 mg/kg/injection, schedule: Q01DX001 (ip), vehicle: saline.

The list is a part of this screen's results and no random one: it is rich in T/C values a quarter to a half above the control, in often repeated tests (any T/C) and in doses without a T/C. Further doses and runs are listed elsewhere. T/C is the treated group as % of the vehicle group. Some entries give survivors of the animals treated and no T/C: the source files T/C as zero there, which appears to mark a toxic dose or a test without result, not a measured value. Some survivor counts are full or nearly so, which does not show that the dose was tolerated: the source hardly ever lists a survival T/C far under the control, and the zero likely stands for such cases as well. Counts of survivors are from the toxicity check (mostly the fifth day) where no day follows; animals may have died later. Schedules are NCI's codes, taken here to give the interval after Q, in days (D) or hours (H), and the number of doses after X. Some schedules carry Z or #; the key to these is not given. Some entries hold several experiments; the values are given in rising order. Where survival is the endpoint, this PubChem deposit counts one and a half times the control or more as active, and values a quarter to a half above the control carry no call in these data; other NCI protocols may use other cut-offs.

As to `CCCCCCCCCCCC(=O)[O][Pb]([CH2]CCC)([CH2]CCC)[O]C(=O)CCCCCCCCCCC`, the T/C (dose: 25.0 mg/kg/injection, schedule: Q04DX002 (ip), vehicle: gum acacia) is 127 % of control. Besides, the survivor count is 0 of 3 and 1 of 3 (dose: 50.0 mg/kg/injection, schedule: Q04DX002 (ip), vehicle: gum acacia); 0 of 3 (dose: 100.0 mg/kg/injection, schedule: Q04DX002 (ip), vehicle: gum acacia); 0 of 3 (dose: 200.0 mg/kg/injection, schedule: Q04DX002 (ip), vehicle: gum acacia); 0 of 3 (dose: 400.0 mg/kg/injection, schedule: Q04DX002 (ip), vehicle: gum acacia).

For the compound `Cc1nc2ccccc2cc1CCl`, where the note is “dose: 300.0 mg/kg/injection, schedule: Q01DX001 (ip), vehicle: acetone”, the survivor count is 0 of 6.

For the compound `CCC[CH2][Sn]([CH2]CCC)([CH2]CCC)[O]C(=O)CC[S][Sn]([CH2]CCC)([CH2]CCC)[CH2]CCC`, the survivor count (dose: 8.0 mg/kg/injection, schedule: Q01DX015 (ip), vehicle: saline) is 4 of 6; the survivor count (dose: 12.5 mg/kg/injection, schedule: Q01DX001 (ip), vehicle: saline) is 2 of 4; the survivor count (dose: 16.0 mg/kg/injection, schedule: Q01DX015 (ip), vehicle: saline) is listed as 0 of 6; the survivor count (dose: 25.0 mg/kg/injection, schedule: Q01DX001 (ip), vehicle: saline) was 0 of 4; the survivor count (dose: 32.0 mg/kg/injection, schedule: Q01DX015 (ip), vehicle: saline) was 0 of 6; the survivor count (dose: 50.0 mg/kg/injection, schedule: Q01DX001 (ip), vehicle: saline) is given as 0 of 4. Moreover, the survivor count (dose: 64.0 mg/kg/injection, schedule: Q01DX015 (ip), vehicle: saline) is given as 0 of 6; the survivor count (dose: 100.0 mg/kg/injection, schedule: Q01DX001 (ip), vehicle: saline) is given as 0 of 4; the survivor count (dose: 128.0 mg/kg/injection, schedule: Q01DX015 (ip), vehicle: saline) is given as 0 of 6.

For the compound `CCc1c(Nc2ccccc2Cl)nc(N)[nH]c1=O`, the survivor count (dose: 200.0 mg/kg/injection, schedule: Q01DX Z (ip), vehicle: methylcellulose (MC)) is 6 of 6.

In the case of `COc1cc2c(cc1NC(=O)N(CCCl)N=O)-c1ccccc1C2`, the T/C (dose: 30.0 mg/kg/injection, schedule: Q01DX001 (ip), vehicle: carboxymethylcellulose (CMC)) is 139 % of control; the T/C (dose: 60.0 mg/kg/injection, schedule: Q01DX001 (ip), vehicle: carboxymethylcellulose (CMC)) was 133 % of control; the T/C (dose: 120.0 mg/kg/injection, schedule: Q01DX001 (ip), vehicle: carboxymethylcellulose (CMC)) was 144 % of control; the T/C (dose: 177.0 mg/kg/injection, schedule: Q01DX001 (ip), vehicle: carboxymethylcellulose (CMC)) was 145 % of control.

Take `CC(=O)CC(=O)Nc1cc(Cl)c(NC(=O)CC(C)=O)cc1Cl`: the T/C (dose: 100.0 mg/kg/injection, schedule: Q04DX003 (ip), vehicle: saline with Tween-80) is 125 % of control.

With `F[C](F)(F)[Hg][c]1ccccc1`, the survivor count reads like this: (dose: 25.0 mg/kg/injection, schedule: Q04DX002 (ip), vehicle: saline with Tween-80) 1 of 3; (dose: 50.0 mg/kg/injection, schedule: Q04DX002 (ip), vehicle: saline with Tween-80) 0 of 3; (dose: 100.0 mg/kg/injection, schedule: Q04DX002 (ip), vehicle: saline with Tween-80) 0 of 3.

Consider `CC[n+]1cccc(NC(=O)c2ccc(NC(=O)c3ccc(C(=O)Nc4ccc5c(ccc[n+]5CC)c4)cc3)cc2)c1`, for which the survivor count (dose: 1.0 mg/kg/injection, schedule: Q01DX015 (oral), vehicle: alkali diluted with saline) is listed as 1 of 6; the survivor count (dose: 3.0 mg/kg/injection, schedule: Q01DX015 (oral), vehicle: alkali diluted with saline) is listed as 0 of 6; the survivor count (dose: 6.0 mg/kg/injection, schedule: Q01DX015 (oral), vehicle: alkali diluted with saline) is recorded as 0 of 6; the survivor count (dose: 12.0 mg/kg/injection, schedule: Q01DX015 (ip), vehicle: alkali diluted with saline) was 1 of 6; the survivor count (dose: 12.0 mg/kg/injection, schedule: Q01DX015 (oral), vehicle: alkali diluted with saline) is listed as 0 of 6; the survivor count (dose: 25.0 mg/kg/injection, schedule: Q01DX015 (oral), vehicle: alkali diluted with saline) is recorded as 0 of 6. Further, the survivor count was 4 of 6 (dose: 35.0 mg/kg/injection, schedule: Q01DX015 (ip), vehicle: alkali diluted with saline); 0 of 4 (dose: 37.0 mg/kg/injection, schedule: Q01DX001 (ip), vehicle: alkali diluted with saline); 0 of 4 (dose: 50.0 mg/kg/injection, schedule: Q01DX001 (ip), vehicle: alkali diluted with saline); 0 of 6 (dose: 50.0 mg/kg/injection, schedule: Q01DX015 (ip), vehicle: alkali diluted with saline); 0 of 6 (dose: 50.0 mg/kg/injection, schedule: Q01DX015 (oral), vehicle: alkali diluted with saline); 0 of 4 (dose: 100.0 mg/kg/injection, schedule: Q01DX001 (ip), vehicle: alkali diluted with saline). Further, the survivor count reads like this: (dose: 200.0 mg/kg/injection, schedule: Q01DX001 (ip), vehicle: alkali diluted with saline) 0 of 4; (dose: 400.0 mg/kg/injection, schedule: Q01DX001 (ip), vehicle: alkali diluted with saline) 0 of 4. Further, the T/C is, setting by setting: (dose: 1.1 mg/kg/injection, schedule: Q01DX Z (ip), vehicle: carboxymethylcellulose (CMC)) 141 % of control; (dose: 1.5 mg/kg/injection, schedule: Q01DX015 (ip), vehicle: alkali diluted with saline) 144 % of control; (dose: 6.7 mg/kg/injection, schedule: Q01DX Z (ip), vehicle: carboxymethylcellulose (CMC)) 125 % of control.

Turning to `CC(=O)OC1=C(Cl)C(=O)c2ccccc2C1=O`, for the setting “dose: 300.0 mg/kg/injection, schedule: Q01DX001 (ip), vehicle: other”, the survivor count was 0 of 6.

Regarding `CC(=O)/C(=C\c1ccc(N(C)C)cc1)C(C)=[N+](C)C(=O)c1c(/[N+](C)=C(C)\C(=C\c2ccc(N(C)C)cc2)C(C)=O)ncn1C`, the survivor count under setting [1] is on record as 0 of 3.

`C=CCc1c[nH]c(=S)[nH]c1=O.[Hg]`: the survivor count is on record as 2 of 6 (dose: 25.0 mg/kg/injection, schedule: Q01DX001 (ip), vehicle: Klucel (hydroxypropylcellulose) (HPC)); 5 of 6 (dose: 25.0 mg/kg/injection, schedule: Q01DX009 (ip), vehicle: Klucel (hydroxypropylcellulose) (HPC)); 4 of 5 (dose: 25.0 mg/kg/injection, schedule: Q04DX003 (ip), vehicle: Klucel (hydroxypropylcellulose) (HPC)); 0 of 6 (dose: 100.0 mg/kg/injection, schedule: Q01DX001 (ip), vehicle: Klucel (hydroxypropylcellulose) (HPC)); 0 of 6 (dose: 200.0 mg/kg/injection, schedule: Q01DX001 (ip), vehicle: Klucel (hydroxypropylcellulose) (HPC)); 0 of 5 (dose: 400.0 mg/kg/injection, schedule: Q01DX001 (ip), vehicle: Klucel (hydroxypropylcellulose) (HPC)).

As for `O=C(O)Cc1ccccc1`, the survivor count (dose: 300.0 mg/kg/injection, schedule: Q01DX001 (ip), vehicle: carboxymethylcellulose (CMC)) was 5 of 6 and the survivor count under setting [2] was 3 of 6.

`CN(C)C(=S)[S][Sb]([S]C(=S)N(C)C)[c]1ccccc1`: the survivor count (dose: 400.0 mg/kg/injection, schedule: Q01DX001 (ip), vehicle: steroid suspending solution) is recorded as 2 of 4.

`CCCCn1cnc2c(SC)ncnc21`: the survivor count under setting [1] is recorded as 2 of 4.

As for `NC(=O)Nc1cccc2c1-c1ccccc1C2=O`, the survivor count (dose: 200.0 mg/kg/injection, schedule: Q04DX003 (ip), vehicle: acetone) is listed as 6 of 6.

For `Clc1ccc(/C=C2\c3ccccc3-c3nc4ccccc4nc32)cc1`, under “dose: 300.0 mg/kg/injection, schedule: Q04DX003 (ip), vehicle: saline”, the survivor count was 6 of 6.

With `O=C(CBr)c1ccc2c3c(cccc13)C=C2`, the survivor count is reported as 2 of 6 (dose: 150.0 mg/kg/injection, schedule: Q01DX001 (ip), vehicle: saline) and 0 of 6 under setting [2].
